Measured values as given in PubChem BioAssay (EPA / NIEHS).
Where “and” joins values, the source holds several entries; their conditions need not be identical. Equal entries are not always repeated. The inconclusive results got no clear call from the source; some entries with a clear call stand among them for comparison. Potencies beside an inconclusive call are fits to weak or partial responses and may not hold up. Some structures have more than one record in an assay (separate samples or runs), and their calls can disagree. Calls of active or inactive are those of the source. Rule for the calls: active = hit-call score of the fitted dose curve at least 0.9, where 1 is the maximum; inconclusive = response in the unintended direction; inactive = score below 0.9.

Chains of the proteins cited; added tags and fusions are not shown.
UniProt P04637, whole entry, looked up: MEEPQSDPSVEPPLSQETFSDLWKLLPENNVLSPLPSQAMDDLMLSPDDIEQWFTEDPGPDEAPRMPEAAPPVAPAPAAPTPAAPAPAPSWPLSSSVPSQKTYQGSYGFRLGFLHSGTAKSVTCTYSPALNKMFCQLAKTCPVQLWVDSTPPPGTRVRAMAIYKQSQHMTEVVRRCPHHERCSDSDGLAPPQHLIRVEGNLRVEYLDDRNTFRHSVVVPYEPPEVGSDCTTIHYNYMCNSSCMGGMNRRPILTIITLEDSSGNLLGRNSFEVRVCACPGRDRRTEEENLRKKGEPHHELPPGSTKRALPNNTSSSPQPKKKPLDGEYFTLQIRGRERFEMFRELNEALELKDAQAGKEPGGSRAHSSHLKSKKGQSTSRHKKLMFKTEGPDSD

Biological target: Cellular tumor antigen p53 (Homo sapiens) (UniProt P04637)
Test: TOX21_p53_BLA_p5_ratio: Tox21 HCT-116 p53 Agonism Beta-lactamase Assay, Ratio, Phase 5 (AID 2283599)
Text: TOX21_p53_BLA_p5 is a cell-based, single-readout assay that uses HCT116, a human intestinal cell line, […] in a 1536-well plate.TOX21_p53_BLA_p5_ratio is an assay readout measuring reporter gene via receptor activity and designed using inducible reporter (beta lactamase induction) detected with GAL4 b-lactamase reporter gene. The signal is derived from the ratio of cleaved (ch2) to uncleaved (ch1) reporter gene substrate used as the measure of target activity.Data from the assay component TOX21_p53_BLA_p5_ratio was analyzed into 1 assay endpoint. This assay endpoint, TOX21_p53_BLA_p5_ratio, was analyzed in the positive analysis fitting direction relative to DMSO as the negative control and baseline of activity. Using a type of inducible reporter, gain-of-signal activity can be used to understand changes in the reporter gene as they relate to the gene TP53. Furthermore, this assay endpoint can be referred to as a primary readout, because this assay has produced multiple assay endpoints and this ratio serves a reporter gene function to understand target activity. To generalize the intended target to other relatable targets, this assay endpoint is annotated to the DNA binding intended target family, where the subfamily is tumor suppressor.
Thawing Method: Place 14 mL of pre-warmed thaw medium into a 15 mL of conical tub. Remove the vial of cells to be thawed from liquid nitrogen and thaw rapidly by placing at 37C in a water bath with gentle agitation for 1-2 minutes. Decontaminate the vial by wiping with 70% ethanol before opening in a biological safety cabinet. Transfer the vial contents drop-wise into 14 mL of thaw medium in a sterile 15-mL conical tub. Centrifuge cells at 900 rpm for 4 minutes and resuspend in thaw medium. Transfer contents to the T75 tissue culture flask containing Thaw Medium and place flask in a humidified 37C/5% CO2 incubator. Switch to growth medium at first passage.Propagation Method: Aspirate medium, rinse once in DPBS, add 0.25% Trypsin/EDTA and swirl to coat the cell evenly. Add an equal volume of Growth Medium to inactivate Trypsin after 2-3 minutes incubation at 37C. Centrifuge cells at 900 rpm for 4 minutes and resuspend in growth medium. Cell should be passage or fed at least twice a week.Assay Protocol: Harvest cells from culture in growth medium and resuspend in assay medium. 2.2 Dispense 4000 cells/5 uL/well into 1536-well black/clear bottom plates using a Multidrop dispenser. After the cells were incubated at 37C for 5 hours, 23 nL of compounds dissolved in DMSO were transferred to the assay plate by a PinTool resulting in a 217-fold dilution. Incubate the plates for 16 hours at 37C, 5% CO2. Add 1 uL of 6X LiveBLAzer FRET B/G (CCF4-AM) Substrate Mixture to each well using a BioRAPTR dispenser and incubate the plates at room temperature for 2 hours. Measure fluorescence intensity at 460 and 530 nm emission and 405 nm excitation by an Envision detector. Data is expressed as the ratio of 460nm/530nm emissions. Add 4 uL of Cell-titer Glo to each well using BioRAPTR and incubate the plates at room temperature for 2 hours. Measure fluorescence intensity by a VewLux plate reader.

| SMILES | AC50 | outcome |
| --- | --- | --- |
| Cc1cc(Cc2cc(C)cc(C(C)(C)C)c2O)c(O)c(C(C)(C)C)c1 | active: 33.6 µM and active: 41.4 µM | – |
| O=Nc1ccc(Nc2ccccc2)cc1 | active: 77.5 µM and active: 46.3 µM | – |
| O=S(=O)(O)c1ccc2ccccc2c1 | inconclusive: 46.1 µM | inactive |
| CCCSSCCC | inconclusive: 46.1 µM | – |
| CCCCCCCCCCO | inconclusive: 46.2 µM | – |
| CCCc1cc(=O)[nH]c(=S)[nH]1 | inconclusive: 46.1 µM | – |
| OC(CCl)CCl | inconclusive: 47 µM | – |
| C[C@]12CC[C@@H]3c4ccc(O)cc4CC[C@H]3[C@@H]1CC[C@@H]2O | active: 31.7 µM and active: 34.6 µM | – |
| COCCOCCOCCOCCOC | inconclusive: 84.5 µM | – |
| CCCCCCCCOC(=O)c1cc(O)c(O)c(O)c1 | active: 63.3 µM | – |
| CN(C)CCC=C1c2ccccc2CCc2ccccc21 | inconclusive: 21.6 µM and inconclusive: 46.1 µM and inconclusive: 8.06 µM | – |
| O=C(O)Cc1ccccc1Nc1c(Cl)cccc1Cl | active: 86.4 µM | inactive |
| CCOc1ccc2c(c1)C(C)=CC(C)(C)N2 | active: 67.7 µM | – |
| C=C(C)C(=O)OCCN(C)C | inconclusive: 46.5 µM | – |
| COC(=O)c1ccc(O)cc1 | inconclusive: 46.1 µM | – |
| CC(C)c1cccc(O)c1 | – | inactive |
| N[C@@H](Cc1cc(I)c(Oc2ccc(O)c(I)c2)c(I)c1)C(=O)O | inconclusive: 36.9 µM and active: 36.8 µM | – |
| CC1=CC(O)CC(C)(C)C1 (stereo not given) | inconclusive: 46.1 µM | – |

Rewritten with bars between the fields: part of the list above
SMILES | AC50 | outcome
CN(C)CCC=C1c2ccccc2CCc2ccccc21 | inconclusive: 21.6 µM and inconclusive: 46.1 µM and inconclusive: 8.06 µM | –
O=C(O)Cc1ccccc1Nc1c(Cl)cccc1Cl | active: 86.4 µM | inactive
N[C@@H](Cc1cc(I)c(Oc2ccc(O)c(I)c2)c(I)c1)C(=O)O | inconclusive: 36.9 µM and active: 36.8 µM | –

More results:

| SMILES | AC50 | outcome |
| --- | --- | --- |
| CNC(=S)N(C)C | inconclusive: 46.4 µM | – |
| CCOC(=O)CCCCCCCCC(=O)OCC | – | inactive |
| Cc1cc(C)c(C)cc1C | inconclusive: 46.3 µM | inactive |
| C=CCCCCCCCCC(=O)OCCCC | – | inactive |
| NC(=NCCCCCCN=C(N)/N=C(\N)Nc1ccc(Cl)cc1)/N=C(\N)Nc1ccc(Cl)cc1 | active: 79.6 µM [middle of 4 runs] | inactive |
| COC(=O)CCC(=O)OC | inconclusive: 46.1 µM | – |
| NCc1cccc(C2CCN(C(=O)c3ccc(C#Cc4ccccc4F)o3)CC2)c1 | active: 82.9 µM | – |
| Nc1ccc(C(=O)OCCCOC(=O)c2ccc(N)cc2)cc1 | – | inactive |
| NC(=O)Cn1c(=O)cc(CCN2CCN(c3nccc4sccc34)CC2)c2ccc(F)cc21 | inconclusive: 77.4 µM | – |
| C1=COCCC1 | inconclusive: 46.1 µM | – |
| CCC(C)N(C)C(=O)c1cc2ccccc2c(-c2ccccc2Cl)n1 (stereo not given) | – | inactive |
| Oc1ccc(/C=C/c2cc(O)cc(O)c2)cc1 | – | inactive |
| c1ccc2c(c1)Cc1ccccc1-2 | active: 87.3 µM | – |
| O=P(c1ccccc1)(c1ccccc1)c1ccccc1 | inconclusive: 46.1 µM | – |
| CC#C[C@]1(O)CC[C@H]2[C@@H]3CCC4=CC(=O)CCC4=C3[C@@H](c3ccc(N(C)C)cc3)C[C@@]21C | active: 72.6 µM and active: 22 µM | – |
| CCOC(=O)c1ccc(O)cc1 | inconclusive: 23 µM | – |
| O=P(OC(CCl)CCl)(OC(CCl)CCl)OC(CCl)CCl | – | inactive |
| c1ccc2ccccc2c1 | inconclusive: 23 µM | – |
